In paper doi:10.1101/2022.06.10.494364:
No constants are given. Whether binding was seen depends on the method and setting. In cells and extracts the contact can be indirect. Some binding calls cover weakened binding; strength is not graded here.

Chains of the proteins cited; added tags and fusions are not shown.
UniProt P51692: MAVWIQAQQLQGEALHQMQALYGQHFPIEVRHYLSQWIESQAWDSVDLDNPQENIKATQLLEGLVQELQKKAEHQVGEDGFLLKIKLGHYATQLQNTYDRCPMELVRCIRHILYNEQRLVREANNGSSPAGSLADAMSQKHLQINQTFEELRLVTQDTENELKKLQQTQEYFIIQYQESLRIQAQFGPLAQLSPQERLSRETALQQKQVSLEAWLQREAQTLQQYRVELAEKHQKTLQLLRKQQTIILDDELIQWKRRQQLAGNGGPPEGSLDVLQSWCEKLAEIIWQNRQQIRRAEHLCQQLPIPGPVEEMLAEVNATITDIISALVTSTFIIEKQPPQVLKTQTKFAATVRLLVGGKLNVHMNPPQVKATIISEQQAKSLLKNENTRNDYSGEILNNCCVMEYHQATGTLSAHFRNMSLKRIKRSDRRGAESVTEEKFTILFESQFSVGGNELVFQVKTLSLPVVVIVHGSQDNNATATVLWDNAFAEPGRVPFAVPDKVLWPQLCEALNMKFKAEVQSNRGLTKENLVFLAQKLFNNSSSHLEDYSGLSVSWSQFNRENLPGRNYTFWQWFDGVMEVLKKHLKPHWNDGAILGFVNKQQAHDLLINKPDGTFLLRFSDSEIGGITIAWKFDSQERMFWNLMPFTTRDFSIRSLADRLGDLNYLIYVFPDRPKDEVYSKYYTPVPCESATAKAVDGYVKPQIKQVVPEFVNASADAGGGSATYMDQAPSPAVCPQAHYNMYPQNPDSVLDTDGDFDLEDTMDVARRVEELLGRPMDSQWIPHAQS
UniProt P42229: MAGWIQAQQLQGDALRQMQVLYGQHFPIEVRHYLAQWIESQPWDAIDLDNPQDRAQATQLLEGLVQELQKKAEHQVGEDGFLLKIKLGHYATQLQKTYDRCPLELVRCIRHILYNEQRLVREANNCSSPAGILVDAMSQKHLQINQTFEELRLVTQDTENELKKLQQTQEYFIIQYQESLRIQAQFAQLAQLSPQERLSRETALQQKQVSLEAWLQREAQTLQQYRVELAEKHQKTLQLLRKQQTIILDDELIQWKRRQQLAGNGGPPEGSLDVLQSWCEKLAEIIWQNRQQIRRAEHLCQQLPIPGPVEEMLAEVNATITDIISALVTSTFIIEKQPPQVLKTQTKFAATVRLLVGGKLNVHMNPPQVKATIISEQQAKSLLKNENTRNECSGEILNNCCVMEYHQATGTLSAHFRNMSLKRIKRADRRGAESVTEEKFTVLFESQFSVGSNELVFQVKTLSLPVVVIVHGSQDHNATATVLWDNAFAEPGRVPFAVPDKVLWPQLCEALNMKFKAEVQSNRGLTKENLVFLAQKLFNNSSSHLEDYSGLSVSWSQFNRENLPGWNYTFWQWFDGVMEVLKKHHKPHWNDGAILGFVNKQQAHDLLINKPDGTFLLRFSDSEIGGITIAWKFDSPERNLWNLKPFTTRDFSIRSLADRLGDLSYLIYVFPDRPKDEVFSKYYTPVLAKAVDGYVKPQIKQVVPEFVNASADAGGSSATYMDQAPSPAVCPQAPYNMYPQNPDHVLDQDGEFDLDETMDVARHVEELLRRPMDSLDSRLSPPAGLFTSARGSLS
UniProt Q07912: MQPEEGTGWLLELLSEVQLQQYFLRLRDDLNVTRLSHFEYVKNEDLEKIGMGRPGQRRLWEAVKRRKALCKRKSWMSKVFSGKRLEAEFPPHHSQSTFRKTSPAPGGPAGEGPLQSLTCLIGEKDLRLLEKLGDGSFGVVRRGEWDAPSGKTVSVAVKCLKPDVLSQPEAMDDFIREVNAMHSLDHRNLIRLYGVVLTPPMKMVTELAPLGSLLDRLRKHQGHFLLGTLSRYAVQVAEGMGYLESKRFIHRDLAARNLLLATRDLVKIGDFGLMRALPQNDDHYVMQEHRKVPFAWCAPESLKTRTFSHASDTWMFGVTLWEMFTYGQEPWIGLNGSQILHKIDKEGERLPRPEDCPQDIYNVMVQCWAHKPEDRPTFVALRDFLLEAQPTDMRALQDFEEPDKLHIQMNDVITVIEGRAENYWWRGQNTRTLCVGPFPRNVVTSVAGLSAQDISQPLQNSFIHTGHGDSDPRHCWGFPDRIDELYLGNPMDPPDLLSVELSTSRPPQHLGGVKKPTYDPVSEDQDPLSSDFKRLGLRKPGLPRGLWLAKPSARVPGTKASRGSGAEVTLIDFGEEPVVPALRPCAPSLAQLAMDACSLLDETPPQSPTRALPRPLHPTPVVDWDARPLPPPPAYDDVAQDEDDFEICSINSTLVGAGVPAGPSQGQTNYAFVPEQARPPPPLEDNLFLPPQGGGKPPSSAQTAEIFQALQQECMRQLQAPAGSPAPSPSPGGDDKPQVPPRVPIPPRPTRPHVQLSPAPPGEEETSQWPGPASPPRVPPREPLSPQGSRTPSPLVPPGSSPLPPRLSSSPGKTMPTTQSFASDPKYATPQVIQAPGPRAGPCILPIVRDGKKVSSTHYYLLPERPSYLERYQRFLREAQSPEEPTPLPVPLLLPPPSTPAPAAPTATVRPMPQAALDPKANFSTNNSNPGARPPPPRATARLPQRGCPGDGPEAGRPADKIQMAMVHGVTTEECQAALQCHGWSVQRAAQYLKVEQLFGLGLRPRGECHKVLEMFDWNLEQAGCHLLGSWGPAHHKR

How the values were obtained:
FLAG-STAT5B = FLAG-STAT5B (UniProt P51692); assay: co-IP
FLAG-STAT5A = FLAG-STAT5A (UniProt P42229); assay: co-IP

HA-ACK (wild type activated Cdc42-associated kinase) (from UniProt Q07912 1-1038) (enzyme)
binding (FLAG-STAT5B): binds
binding (FLAG-STAT5A): binds
